Test results: US9914781
No constants are given. Whether binding was seen depends on the method and setting. Some entries that bind do so weakly or less than the wild type.

Biological target: cynomolgus TrkB receptor (cynomolgus)
Experiment: recombinant TrkB in a heterologous cell line, primary cells or human iPSC derived cells

B1: 1G11 (murine TrkB agonist monoclonal antibody) (antibody, V domains shown)
VH: QVQLQQSGDDLVKPGASVKLSCKASGYTFTSYYINWIKQRPGQGLECIGRIAPGNTYYNEIFKGKAILTVDTSSSTAYIQLSSLSSEDSGVYFCARRGYEGALDYWGQGTSVTVSS
VL: DIVLTQSPATLSVTPGDSVSLSCRASQRISNNLHWYQQKSHESPRLLIKYVSQSISGIPSRFSGSGSGTDFTLSINSVETEDFGMYFCQQSNSWPLTFGAGTKLELKR
- binding: binds
